# The list shows a part of the results. Most entries show no effect beyond the scatter of the controls.
# Sequences of proteins named here, by UniProt entry; tags and fusion partners are left off. A change or cut given only in a name is not applied to a line headed by its entry.
# UniProt P07948: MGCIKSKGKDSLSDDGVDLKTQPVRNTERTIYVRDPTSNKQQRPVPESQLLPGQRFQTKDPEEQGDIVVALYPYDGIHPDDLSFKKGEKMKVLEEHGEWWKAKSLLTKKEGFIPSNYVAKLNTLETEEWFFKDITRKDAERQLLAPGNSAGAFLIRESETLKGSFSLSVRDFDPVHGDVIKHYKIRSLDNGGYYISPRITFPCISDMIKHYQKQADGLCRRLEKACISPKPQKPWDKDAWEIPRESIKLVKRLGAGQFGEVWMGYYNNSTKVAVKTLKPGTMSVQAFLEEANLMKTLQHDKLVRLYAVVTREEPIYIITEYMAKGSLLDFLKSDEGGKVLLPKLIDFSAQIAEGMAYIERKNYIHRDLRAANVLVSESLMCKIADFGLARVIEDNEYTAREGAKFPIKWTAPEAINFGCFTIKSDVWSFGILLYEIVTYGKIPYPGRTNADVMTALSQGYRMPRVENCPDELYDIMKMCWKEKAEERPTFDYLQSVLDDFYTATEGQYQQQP
# UniProt P11441: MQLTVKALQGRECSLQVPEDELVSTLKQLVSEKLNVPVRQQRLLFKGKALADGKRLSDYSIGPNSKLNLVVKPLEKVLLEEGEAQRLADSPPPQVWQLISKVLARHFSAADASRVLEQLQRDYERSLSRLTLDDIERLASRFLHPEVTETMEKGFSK
# UniProt P10646, whole entry: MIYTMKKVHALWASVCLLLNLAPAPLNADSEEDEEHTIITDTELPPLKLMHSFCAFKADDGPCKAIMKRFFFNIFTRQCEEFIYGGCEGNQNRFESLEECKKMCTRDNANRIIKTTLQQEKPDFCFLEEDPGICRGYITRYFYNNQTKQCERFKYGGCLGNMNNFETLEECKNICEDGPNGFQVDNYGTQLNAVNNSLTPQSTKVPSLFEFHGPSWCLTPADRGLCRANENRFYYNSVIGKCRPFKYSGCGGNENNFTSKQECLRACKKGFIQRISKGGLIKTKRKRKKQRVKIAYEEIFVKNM
# UniProt P10589: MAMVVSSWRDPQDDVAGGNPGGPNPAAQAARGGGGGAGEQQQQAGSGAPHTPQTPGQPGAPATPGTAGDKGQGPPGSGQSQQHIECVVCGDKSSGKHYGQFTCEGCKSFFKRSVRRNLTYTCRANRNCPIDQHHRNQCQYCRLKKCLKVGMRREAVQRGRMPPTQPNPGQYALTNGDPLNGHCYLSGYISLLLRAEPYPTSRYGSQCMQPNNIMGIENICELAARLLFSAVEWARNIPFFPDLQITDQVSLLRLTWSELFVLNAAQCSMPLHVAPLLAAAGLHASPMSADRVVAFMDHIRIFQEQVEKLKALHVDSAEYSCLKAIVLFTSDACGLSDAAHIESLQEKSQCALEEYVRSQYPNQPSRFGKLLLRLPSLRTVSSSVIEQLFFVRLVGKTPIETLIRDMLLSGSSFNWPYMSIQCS
# UniProt P0DJD0, whole entry: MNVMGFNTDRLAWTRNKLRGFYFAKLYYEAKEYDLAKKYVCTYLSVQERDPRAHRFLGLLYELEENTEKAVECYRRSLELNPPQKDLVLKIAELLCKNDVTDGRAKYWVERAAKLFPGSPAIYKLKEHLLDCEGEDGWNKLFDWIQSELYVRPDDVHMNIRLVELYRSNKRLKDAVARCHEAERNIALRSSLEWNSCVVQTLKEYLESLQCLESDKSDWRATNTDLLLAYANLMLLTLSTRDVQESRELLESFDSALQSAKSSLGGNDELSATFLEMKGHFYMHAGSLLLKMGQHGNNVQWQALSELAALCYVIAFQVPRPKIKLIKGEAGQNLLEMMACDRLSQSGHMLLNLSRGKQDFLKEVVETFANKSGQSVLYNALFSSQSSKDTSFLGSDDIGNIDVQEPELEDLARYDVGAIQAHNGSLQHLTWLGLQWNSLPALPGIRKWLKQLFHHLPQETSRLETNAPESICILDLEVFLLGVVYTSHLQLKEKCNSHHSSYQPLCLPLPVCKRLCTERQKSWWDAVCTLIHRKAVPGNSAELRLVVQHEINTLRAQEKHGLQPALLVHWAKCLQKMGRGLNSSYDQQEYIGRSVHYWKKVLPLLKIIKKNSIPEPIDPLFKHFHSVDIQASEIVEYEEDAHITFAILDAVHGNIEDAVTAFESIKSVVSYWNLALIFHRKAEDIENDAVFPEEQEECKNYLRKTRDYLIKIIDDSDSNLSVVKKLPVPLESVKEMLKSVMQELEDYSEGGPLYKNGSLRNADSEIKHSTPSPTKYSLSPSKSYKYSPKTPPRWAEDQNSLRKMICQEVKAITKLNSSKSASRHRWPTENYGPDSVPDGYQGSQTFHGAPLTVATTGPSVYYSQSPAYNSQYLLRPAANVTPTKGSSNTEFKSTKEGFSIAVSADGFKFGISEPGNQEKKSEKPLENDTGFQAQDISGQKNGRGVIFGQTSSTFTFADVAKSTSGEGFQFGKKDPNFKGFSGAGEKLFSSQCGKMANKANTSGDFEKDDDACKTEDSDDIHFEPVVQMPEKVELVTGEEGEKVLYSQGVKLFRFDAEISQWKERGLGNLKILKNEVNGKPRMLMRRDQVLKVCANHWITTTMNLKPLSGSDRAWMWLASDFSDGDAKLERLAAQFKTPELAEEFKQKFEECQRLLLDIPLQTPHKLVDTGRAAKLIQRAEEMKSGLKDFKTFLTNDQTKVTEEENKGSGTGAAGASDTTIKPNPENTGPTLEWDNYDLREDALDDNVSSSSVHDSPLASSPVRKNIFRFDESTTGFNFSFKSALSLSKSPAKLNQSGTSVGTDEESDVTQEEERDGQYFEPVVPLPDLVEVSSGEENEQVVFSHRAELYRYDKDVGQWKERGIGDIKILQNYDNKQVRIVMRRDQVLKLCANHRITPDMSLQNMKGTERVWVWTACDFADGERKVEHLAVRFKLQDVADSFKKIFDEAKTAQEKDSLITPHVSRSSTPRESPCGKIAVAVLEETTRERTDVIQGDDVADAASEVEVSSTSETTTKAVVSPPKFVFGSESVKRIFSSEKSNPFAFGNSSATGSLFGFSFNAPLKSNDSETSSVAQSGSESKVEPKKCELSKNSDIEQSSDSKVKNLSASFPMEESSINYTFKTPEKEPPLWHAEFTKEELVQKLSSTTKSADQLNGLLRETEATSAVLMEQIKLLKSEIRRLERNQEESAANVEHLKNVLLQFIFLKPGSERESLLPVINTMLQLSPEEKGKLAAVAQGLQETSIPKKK
# UniProt P10124: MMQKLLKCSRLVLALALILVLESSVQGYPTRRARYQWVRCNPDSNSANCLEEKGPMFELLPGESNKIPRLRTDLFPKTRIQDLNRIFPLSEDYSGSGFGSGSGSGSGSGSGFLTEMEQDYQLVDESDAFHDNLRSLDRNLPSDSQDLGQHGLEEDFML
# UniProt P12956: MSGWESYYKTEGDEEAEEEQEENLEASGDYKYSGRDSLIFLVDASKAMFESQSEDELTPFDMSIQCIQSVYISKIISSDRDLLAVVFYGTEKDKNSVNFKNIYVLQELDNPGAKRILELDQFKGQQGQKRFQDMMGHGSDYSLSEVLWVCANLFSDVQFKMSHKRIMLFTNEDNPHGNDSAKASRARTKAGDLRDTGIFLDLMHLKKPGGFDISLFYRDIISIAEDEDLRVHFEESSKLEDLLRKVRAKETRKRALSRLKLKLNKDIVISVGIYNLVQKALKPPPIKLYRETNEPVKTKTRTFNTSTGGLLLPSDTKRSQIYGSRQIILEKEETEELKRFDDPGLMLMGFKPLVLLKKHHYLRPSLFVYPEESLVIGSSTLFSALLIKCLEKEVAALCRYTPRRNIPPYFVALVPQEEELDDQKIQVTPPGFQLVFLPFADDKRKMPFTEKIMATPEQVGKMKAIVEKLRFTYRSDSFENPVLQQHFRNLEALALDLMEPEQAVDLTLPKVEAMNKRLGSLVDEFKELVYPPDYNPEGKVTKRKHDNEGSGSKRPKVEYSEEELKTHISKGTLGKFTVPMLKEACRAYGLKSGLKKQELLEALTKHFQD
# Compound: Cc1nc(Nc2ncc(C(=O)Nc3c(C)cccc3Cl)s2)cc(N2CCN(CCO)CC2)n1 [dasatinib]
# Test: log2 fold change of tryptic peptide abundance, ligand vs vehicle (limited proteolysis) (log2 ratio); higher = more trypsin-susceptible (destabilized)
# Conditions: ligand concentration: 5 uM; sample: K562 cleared lysate
row,Target,log2 fold change
1,"LYN (peptide sequence: EGFIPSNYVAK, peptide start residue: 110) (UniProt P07948)",0.48
2,"UBL4A (peptide sequence: RLSDYSIGPNSK, peptide start residue: 55) (UniProt P11441)",0.455
3,"TFPI (peptide sequence: IAYEEIFVK, peptide start residue: 294) (UniProt P10646)",-0.0676
4,"UniProt P10589 (peptide sequence: SQCALEEYVR, peptide start residue: 341)",-0.211
5,"UniProt P0DJD0 (peptide sequence: SADQLNGLLR, peptide start residue: 1657)",-0.283
6,"SRGN (peptide sequence: GPMFELLPGESNKIPR, peptide start residue: 54) (UniProt P10124)",-0.207
7,"XRCC6 (peptide sequence: KMPFTEKIMATPEQVGK, peptide start residue: 445) (UniProt P12956)",0.92
